Screen size: about 300,000 compounds; about 5,400 (1.8%) were called active. The inconclusive results got no clear call from the source; some entries with a clear call stand among them for comparison. The call rests on the fitted dose curve; tested in HEK293 cells. Where the call is inconclusive, the potency comes from a doubtful curve fit.
assay: qHTS for inhibitors of binding or entry into cells for Marburg Virus; conditions: Marburg virus pseudotyped entry inhibition, cell reporter; series mostly up to 37.8 µM
Potency means the concentration at half of the fitted maximal effect.

Row | SMILES | Potency
1 | O=C(CCCOc1ccccc1)N1CCN(S(=O)(=O)c2ccc(Cl)cc2)CC1 | inactive
2 | O=C(Cn1ncn2c(cc3sccc32)c1=O)NCCc1ccccc1 | inconclusive: 11.2 µM [activator, single point]
3 | CCOC(=O)C1(CCOC)CCN(Cc2ccc(C(=O)OC)cc2)CC1 | inconclusive: 6.31 µM [inhibitor, single point]
4 | COCc1cc2cc3c(cc2c2c(C(=O)OC)c(C(=O)OC)c(C(=O)OC(C)(C)C)n12)OCO3 | inactive
5 | O=C(COC(=O)/C=C/c1cccc(F)c1)NNC(=O)c1ccccc1 | inconclusive: 5.62 µM [activator, single point]
6 | O=C(COc1ccc(F)cc1Br)Nc1ccccc1N1CCOCC1 | inconclusive: 35.5 µM [inhibitor, single point]
7 | COc1ccc(C2NC(=O)c3sc(=S)n(-c4ccccc4)c3N2)cc1 (stereo unspecified) | inactive
8 | Cc1cc(C)c(NC(=O)CSc2nncn2-c2cccnc2)c(C)c1 | inactive
9 | CC(CCCN(C)C)C(Cc1ccccc1)c1ccccc1 (stereo unspecified) | inconclusive: 35.5 µM [inhibitor, single point]
10 | O=C1OC2CCC1(c1ccccc1)C2 (stereo unspecified) | inconclusive: 1.26 µM [activator, single point]
11 | CSc1ccccc1OCc1cc(C(=O)NC(C)Cc2cccc(C)n2)no1 (stereo unspecified) | inconclusive: 20 µM [inhibitor, single point]
12 | CCOc1ccc(CN(C)C(=O)CNC(=O)c2ccccc2)cc1 | inactive
13 | CCCN1C2CCCC1CC(NC(=O)c1ccccc1Br)C2 (stereo unspecified) | inconclusive: 3.55 µM [inhibitor, single point]
14 | O=C(Nc1ccccc1)NC1CC2CCC(C1)N2Cc1nnnn1Cc1ccc2c(c1)OCO2 (stereo unspecified) | inconclusive: 3.66 µM [inhibitor, partial curve, poor fit]
15 | CN1c2ccccc2C2(C)CCCC3=Cc4cc([N+](=O)[O-])cc([N+](=O)[O-])c4OC312 (stereo unspecified) | inconclusive: 35.5 µM [inhibitor, single point]
16 | Cc1cc(N2CCN(C)CC2)nc2ccc(NC(=S)NCc3cccs3)cc12 | inconclusive: 35.5 µM [inhibitor, single point]
17 | O=C(c1ccc2c(c1)N(Cc1ccccc1)C(=O)c1ccccc1S2)N1CCCC1 | inconclusive: 0.891 µM [inhibitor, full curve, poor fit]
18 | COc1ccc(C2Nc3ccccc3C(=O)N2c2ccc(C)cc2)cc1COc1ccccn1 (stereo unspecified) | inconclusive: 28.2 µM [inhibitor, single point]
19 | COc1ccc(N2C(=O)CC(Sc3nc(C)c4c(n3)CCCC4)C2=O)cc1 (stereo unspecified) | inconclusive: 17.8 µM [inhibitor, single point]
20 | COc1ccc(Nc2nc(C(=O)N3CCc4ccccc4C3)cs2)cc1 | inconclusive: 35.5 µM [inhibitor, single point]
21 | CCC(C)Nc1nc(N)c([N+](=O)[O-])c(Nc2cc(OC)ccc2OC)n1 (stereo unspecified) | inconclusive: 35.5 µM [inhibitor, single point]
22 | COc1cccc([C@H]2Oc3ccc(OC)cc3C(=NO[C@@H](C)CN3CCCCc4nc(C)c(C)cc43)[C@H]2O)c1 | inconclusive: 1.19 µM [activator, single point]

Three compounds picked at random from the list so far:
Row | SMILES | Potency
18 | COc1ccc(C2Nc3ccccc3C(=O)N2c2ccc(C)cc2)cc1COc1ccccn1 (stereo unspecified) | inconclusive: 28.2 µM [inhibitor, single point]
2 | O=C(Cn1ncn2c(cc3sccc32)c1=O)NCCc1ccccc1 | inconclusive: 11.2 µM [activator, single point]
3 | CCOC(=O)C1(CCOC)CCN(Cc2ccc(C(=O)OC)cc2)CC1 | inconclusive: 6.31 µM [inhibitor, single point]

From no. 12 up to 13, as listed above:
Row | SMILES | Potency
12 | CCOc1ccc(CN(C)C(=O)CNC(=O)c2ccccc2)cc1 | inactive
13 | CCCN1C2CCCC1CC(NC(=O)c1ccccc1Br)C2 (stereo unspecified) | inconclusive: 3.55 µM [inhibitor, single point]

(further entries)

Row | SMILES | Potency
23 | CCOc1cc(NS(=O)(=O)CC)c(OCC)cc1NC(=O)c1ccco1 | inconclusive: 29.1 µM [inhibitor, single point]
24 | Cc1ccc(S(=O)(=O)N2CCN(C(=O)CCC(=O)NCc3ccc(F)cc3)CC2)cc1 | inconclusive: 0.562 µM [inhibitor, full curve, poor fit]
25 | CN(CCc1ccccn1)C(=O)c1cc(COc2ccc(F)cc2F)on1 | inactive
26 | COc1cc(Nc2ccc(C)cc2)c([N+](=O)[O-])nc1[N+](=O)[O-] | inconclusive: 0.651 µM [inhibitor, full curve]
27 | O=C1CC(c2ccco2)Cc2nc(Nc3nc(-c4ccccc4)c4ccccc4n3)ncc21 (stereo unspecified) | inactive
28 | CCOC(=O)C1(CCOc2ccccc2)CCN(Cc2cccc3c2OCO3)CC1 | inconclusive: 14.1 µM [inhibitor, single point]
29 | Cc1cc(NC(=O)c2ccccc2)c(Cl)cc1N | inconclusive: 1.12 µM [inhibitor, full curve, poor fit]
30 | CCc1ccc(NC(=O)Cn2c(=O)n(-c3ccc(Cl)c(Cl)c3)c(=O)c3c(C)c(C)sc32)cc1 | inactive
31 | CC1CCC(NC(=O)c2cccc(S(=O)(=O)N3CCN(c4ccc(F)cc4)CC3)c2)CC1 (stereo unspecified) | inactive
32 | Cc1ccc(NS(=O)(=O)c2cc([N+](=O)[O-])ccc2NNC(=S)Nc2cc(C)ccc2C)c(C)c1 | inconclusive: 2.82 µM [inhibitor, partial curve, poor fit]
33 | CN(CC(=O)NC(=O)NCc1ccccc1)Cc1ccc(Cl)c(Cl)c1 | inactive
34 | COc1ccc(-c2cc(C(=O)NCCCN3CCOCC3)no2)cc1 | inconclusive: 35.5 µM [inhibitor, partial curve, poor fit]
35 | CCN(Cc1ccccc1)S(=O)(=O)c1ccc(S(=O)(=O)N(Cc2ccccn2)Cc2ccco2)cc1 | inactive
36 | COc1ccc(CCNC2=C(Cl)C(=O)N(CCc3ccccc3)C2=O)cc1OC | inconclusive: 35.5 µM [inhibitor, single point]
37 | COC(=O)C(CC(C)C)NC(=O)/C=C/c1ccc(Cl)cc1 (stereo unspecified) | inactive
38 | Cn1ncc2c1ncn1nc(CCc3ccccc3)nc21 | inactive
39 | Cc1cccc2cc(CN(Cc3nnnn3C3CCCCC3)C3CCCC3)c3nnnn3c12 | inconclusive: 29.1 µM [inhibitor, single point]
40 | CCOc1ccc(-c2n[nH]c(=S)c3ccccc23)cc1 | inactive
41 | Cc1cccc(NC(=O)Nc2ccc(Cl)c(Cl)c2)n1 | inconclusive: 0.891 µM [inhibitor, partial curve, poor fit]
42 | COc1cccc(NS(=O)(=O)c2ccc3c(c2)n(C)c(=O)n3C)c1 | inconclusive: 5.01 µM [inhibitor, partial curve, poor fit]
43 | Cc1nn2c(-c3ccc(F)cc3)ccnc2c1Br | inconclusive: 8.91 µM [inhibitor, single point]
44 | O=[N+]([O-])c1ccc(-c2nnc(-c3ccccc3)c(NCCCO)n2)cc1 | inconclusive: 17.8 µM [activator, single point]

Row | SMILES | Potency
45 | Cc1nn(C)cc1/C=C/C(=O)c1cccs1 | inconclusive: 0.0146 µM [activator, full curve, poor fit]
46 | COc1cc(/C=C/c2nc(C#N)c(N3CCN(C)CC3)o2)cc(OC)c1OC | inconclusive: 5.62 µM [inhibitor, single point]
47 | CCOc1ccc(S(=O)(=O)Nc2cc(S(=O)(=O)N(CC)CC)ccc2N2CCCC2)cc1 | inconclusive: 2.51 µM [inhibitor, partial curve, poor fit]
48 | COc1ccc(NC(=O)N(C2CCCCC2)C2CCN(C(C)C)CC2)c(OC)c1 | inconclusive: 7.94 µM [inhibitor, partial curve, poor fit]
49 | CC1CCCN(CCCNC(=O)c2ccc(CS(=O)(=O)c3c(Cl)cccc3Cl)o2)C1 (stereo unspecified) | inconclusive: 35.5 µM [inhibitor, single point]
50 | O=C(Nc1nnc(SCc2ccccc2)s1)c1cccs1 | inactive
51 | CC(=O)NCC1CCCN(Cc2cn(-c3ccccc3F)nc2-c2cc(C)sc2C)C1 (stereo unspecified) | inconclusive: 14.1 µM [inhibitor, partial curve, poor fit]
52 | O=C(c1ccc(O)cc1)c1ccc(C(=O)c2ccc(O)cc2)cc1 | inconclusive: 0.251 µM [inhibitor, full curve, poor fit]
53 | Cn1cccc1CC(=O)N/N=C\c1ccccc1 | inactive
54 | CCOC(=O)C1(CC2CC2)CCN(C(=O)c2cccnc2C)CC1 | inconclusive: 6.31 µM [inhibitor, single point]
55 | COc1ccc(/C=C2/C(=N)N3N=C(CC(=O)N4CCCC4)SC3=NC2=O)cc1OC | inactive
56 | CN(C(=O)c1c(Cl)cnn1C)C12CC3CC(CC(C3)C1)C2 | inconclusive: 1.26 µM [activator, single point]
57 | COc1ccc(/C=N/Nc2cc(C)nc(-n3nc(C)cc3C)n2)cc1 | active: 16.4 µM
58 | CCC(C)n1c(SCC(=O)/C(C#N)=C(\C)N)nc2ccccc2c1=O (stereo unspecified) | inconclusive: 5.01 µM [inhibitor, partial curve, poor fit]
59 | CC(=O)N1CCc2cc(Br)cc(S(=O)(=O)CCC(=O)N3CCN(c4ccc(F)cc4)CC3)c21 | inconclusive: 12.6 µM [activator, single point]
60 | O=C(CN(C(=O)Cn1nnc(-c2ccc(F)cc2)n1)c1cccc(F)c1)NC1CCCC1 | inconclusive: 0.891 µM [inhibitor, full curve, poor fit]
61 | CC1(C(=O)OCC(=O)Nc2cccc(S(=O)(=O)NC3=NCCCCC3)c2)CC1(Cl)Cl (stereo unspecified) | inconclusive: 1.58 µM [activator, partial curve, poor fit]
62 | c1ccc(-c2noc(-c3ccc4c(c3)OCO4)n2)cc1 | inconclusive: 25.1 µM [inhibitor, single point]
63 | Cc1c(C(=O)N(Cc2ccccc2F)C2CCS(=O)(=O)C2)oc2ccccc12 (stereo unspecified) | inconclusive: 0.562 µM [activator, full curve, poor fit]
64 | CCOC(=O)Cn1c(-c2ccc(Cl)nc2)nc2ccccc21 | inactive
65 | O=C(NCCc1ccccc1)c1cnn2c(C(F)F)cc(C3CC3)nc12 | inconclusive: 10 µM [inhibitor, partial curve, poor fit]
66 | O=C1[C@H]2[C@H]3[C@H](O)[C@H](O)C/C(=N\OCc4ccccc4)[C@@H]3CC[C@H]2C(=O)N1C[C@@H]1CCCO1 | inactive

Source: PubChem BioAssay AID540276 (National Center for Advancing Translational Sciences (NCATS), 2011)
